Test results from patent US20070178531A1 (BIOCHECK, published 2007).
Results are given in words; binding and its absence hold for the method and conditions named. Some binding calls cover weakened binding; strength is not graded here. For some assays here: Sequences can lack the tags named with a protein.

Key:
[1] = biological target: T1, Human Id3: Histidine (human, UniProt Q02535 1-119 at identity 1.00)); assay: ELISA on coated wells
T1 construct: Fusion protein made in E. coli from vector pGW07; also called h-Id3: His; Human Id3 (coated wells); not shown: His tag
T1 chain: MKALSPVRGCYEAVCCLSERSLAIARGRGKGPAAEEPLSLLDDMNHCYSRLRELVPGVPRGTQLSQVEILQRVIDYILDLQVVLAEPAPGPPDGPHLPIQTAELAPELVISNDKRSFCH

[2] = biological target: T2, human Id3 protein (human, UniProt Q02535 1-119 at identity 1.00)); assay: Western blot on Hela whole cell extract
T2 chain: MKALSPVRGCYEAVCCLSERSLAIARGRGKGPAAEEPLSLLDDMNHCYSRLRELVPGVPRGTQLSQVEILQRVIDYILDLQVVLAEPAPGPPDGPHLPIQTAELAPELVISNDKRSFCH

[3] = biological target: T3, Mouse Id3: Histidine (mouse, UniProt P41133 1-119); assay: ELISA on coated wells
T3 construct: Fusion protein made in E. coli from vector pGW07; also called m-Id3: His; Mouse Id3 (coated wells); not shown: His tag
T3 sequence: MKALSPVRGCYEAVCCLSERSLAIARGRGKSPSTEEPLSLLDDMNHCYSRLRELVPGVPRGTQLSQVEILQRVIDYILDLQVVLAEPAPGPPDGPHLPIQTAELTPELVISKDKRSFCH

[4] = biological target: T4, mouse Id3 protein (mouse, UniProt P41133 1-119); assay: Western blot on 10T1/2 whole cell extract
T4 sequence: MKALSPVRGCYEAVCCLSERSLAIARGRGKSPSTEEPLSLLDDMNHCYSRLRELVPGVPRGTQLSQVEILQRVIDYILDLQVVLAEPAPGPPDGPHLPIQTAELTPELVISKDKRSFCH

[5] = biological target: T4, mouse Id3 protein; assay: immunohistochemistry on embryonic (E13.5) mouse brain sections

Measured: binding

B1: rabbit monoclonal anti-mouse/human Id3, clone #BCH-4/#6-1 (antibody, V domains shown)
VH: QSVEESGGRLVTPGTPLTLTCTASGFSLSNVYIHWVRQAPGKGLEWIGYISDGDTARYATWAKGRFTISKTSSTTVNLKMTSLTTEDTATYFCARQGFNIWGPGTLVTVSL
VL: AVLTQTPSPVSAAVGGTVSISCQSSQSVWNNNWLSWFQQKPGQPPKLLIYETSKLESGVPSRFKGSGSGTQFTLTISDVQCDDAATYYCLGGYWTTSDNNVFGGGTEVVVK
notes: Rabbit IgG from a rabbit hybridoma; also called m/h Id3 MoAb 6-1
binds: [1] | [2]

B2: rabbit monoclonal anti-mouse/human Id3, clone #BCH-4/#17-3 (antibody, V domains shown)
VH: QSVEESGGRLVTPGTPLTLTCTASGFSLSNVYIHWVRQAPGKGLEWIGYISDGDTARYATWAKGRFTISKTSSTTVNLKMTSLTTEDTATYFCARQGFNIWGPGTLVTVSL
VL: AVLTQTPSPVSAAVGGTVSISCQSSQSVWNNNWLSWFQQKPGQPPKLLIYETSKLESGVPSRFKGSGSGTQFTLTISDVQCDDAATYYCLGGYWTTSDNNVFGGGTEVVVK
notes: Rabbit IgG from a rabbit hybridoma; also called m/h Id3 MoAb 17-3; BCH-3/#17-3
binds: [1] | [2]

B3: rabbit monoclonal anti-mouse/human Id3, clone #BCH-4/#16-1 (antibody, V domains shown)
VH: QSVEESGGRLVTPGTPLTLTCTASGFSLSSYYIHWVRQAPGKALEWIGYISDGGTTYYASWAKGRFTISKTSSTTVDLKMTSLTTEDTATYFCARQGFNIWGPGTLVTVSL
VL: AVLTQTPSPVSAAVGGTVTISCQSSQSVYNNNWLSWFQQKSGQPPKLLIYETSKLESGVPSRFKGSGSGTQFTLTIIDVQCDDAATYYCLGGYWTTSDNNIFGGGTEVVVK
notes: Rabbit IgG from a rabbit hybridoma; also called m/h Id3 MoAb 16-1
binds: all assays above

B4: rabbit monoclonal anti-mouse/human Id3, clone #BCH-4/#42-1 (antibody, V domains shown)
VH: QSVEESGGRLVTPGTPLTLTCTASGFSLSSYYIHWVRQAPGKALEWIGYISDGGTTYYASWAKGRFTISKTSSTTVDLKMTSLTTEDTATYFCARQGFNIWGPGTLVTVSL
VL: AVLTQTPSPVSAAVGGTVTISCQSSQSVYNNNWLSWFQQKSGQPPKLLIYETSKLESGVPSRFKGSGSGTQFTLTIIDVQCDDAATYYCLGGYWSTSDNNIFGGGTEVVVK
notes: Rabbit IgG from a rabbit hybridoma; also called m/h Id3 MoAb 42-1
binds: all assays above
